PubChem BioAssay AID1671190 (National Center for Advancing Translational Sciences (NCATS), 2021)
About 6,100 (1.1%) of roughly 580,000 compounds were called active. The shares of active, inactive and inconclusive entries below differ from those in the screen. Calls follow the shape of the dose curve; as a rule, active = well fitted inhibition curve with a large enough effect; inconclusive = small, poorly fitted or top-dose-only effect, or another doubt; inactive = no such curve, though single readings can be large or run the other way. Where the call is inconclusive, the potency comes from a doubtful curve fit.

By UniProt entry, the sequences of proteins in these tests, tags left out. Where a name states a change or a piece, a line headed by the entry shows the natural chain unless it says otherwise.
UniProt P18054: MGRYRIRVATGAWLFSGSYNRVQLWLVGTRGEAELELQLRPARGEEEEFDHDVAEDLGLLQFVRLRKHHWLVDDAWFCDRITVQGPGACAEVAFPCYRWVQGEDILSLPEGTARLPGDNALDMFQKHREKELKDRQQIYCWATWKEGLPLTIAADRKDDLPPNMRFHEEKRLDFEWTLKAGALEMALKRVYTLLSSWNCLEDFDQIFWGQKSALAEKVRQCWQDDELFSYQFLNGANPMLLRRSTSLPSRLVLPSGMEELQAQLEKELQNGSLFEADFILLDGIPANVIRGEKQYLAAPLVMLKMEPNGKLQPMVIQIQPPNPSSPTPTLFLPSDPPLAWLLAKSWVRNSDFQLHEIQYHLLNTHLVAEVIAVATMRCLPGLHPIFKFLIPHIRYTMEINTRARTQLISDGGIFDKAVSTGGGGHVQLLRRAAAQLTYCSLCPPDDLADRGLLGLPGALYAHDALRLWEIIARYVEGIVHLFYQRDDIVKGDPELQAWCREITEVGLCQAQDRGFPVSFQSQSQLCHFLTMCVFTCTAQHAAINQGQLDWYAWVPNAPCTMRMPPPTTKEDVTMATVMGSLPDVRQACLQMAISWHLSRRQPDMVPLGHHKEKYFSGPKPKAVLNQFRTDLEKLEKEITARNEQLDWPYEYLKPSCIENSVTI

Target: Polyunsaturated fatty acid lipoxygenase ALOX12 (Homo sapiens) (UniProt P18054)
Assay: Primary qHTS assay for inhibitors of human arachidonate 12S-lipoxygenase (ALOX12): Round 2
Settings: purified 12hLO, xylenol orange hydroperoxide absorbance; activity change, negative = inhibition: at 108 µM (top of the series) unless noted
In short: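 Hydroperoxide product was detected by ferrous iron/xylenol orange as the 573 to 405 nm absorbance ratio. Arachidonic acid at 40 uM (final) was turned over for 30 min at room temperature by 150 nM human 12hLO, pH 7.0 Hepes buffer, after 15 min compound preincubation.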
% is scaled to controls: 0 for no effect and ±100 for the full control effect; potency is read from the fitted curve at half-maximal effect.

Structure (SMILES) | activity change, negative = inhibition | Potency
CC1=C(C(=O)Nc2ccccc2F)C(c2cccs2)C2=C(CCCC2=O)N1 (stereo not given) | inactive: -6.82% | –
CCCC(=O)N1Cc2ccccc2CC2(CCCCN2Cc2ccccn2)C1 (stereo not given) | – | inconclusive: 20 µM [inhibitor, full curve, poor fit]
Cc1ccccc1-n1c(C)nnc1SCC(=O)NC1CCCc2ccccc21 (stereo not given) | inactive: 19.8% | –
CC/C(=C\C(=O)c1cccnc1)Nc1ccc(C)c(C)c1 | – | inconclusive: 7.08 µM [inhibitor, partial curve, poor fit]
CCn1c(Cn2nnc(-c3ccccc3Cl)n2)nc2cc(S(=O)(=O)N3CCCCC3)ccc21 | inactive: 1.26% | –
COc1ccc(CNC(=O)c2oc3c(c2C)-c2nn(Cc4ccccc4Cl)cc2CC3)cc1 | – | inconclusive: 56.2 µM [inhibitor, partial curve, poor fit]
Cc1ccc(C)c(NC(=O)C(=O)NCC(c2cccnc2)N2CCN(c3ccc(F)cc3)CC2)c1 (stereo not given) | inactive: -24.9% | –
CCN(CCOC(=O)Nc1ccc(Cl)cc1)C(=O)Nc1ccc(Cl)cc1 | – | inconclusive: 79.4 µM [inhibitor, partial curve, poor fit]
Cc1c(C(=O)Nc2ccc(N3C[C@@H](C)O[C@@H](C)C3)nc2)cccc1-c1ccc(OC(F)(F)F)cc1 | inactive: 14.1% [at 57.4 µM] | –
CCOc1cc2c(cc1CNC(=O)c1ccc(F)cc1Br)OC(C)C2 (stereo not given) | inactive: -9.95% | –
COc1ccc(C(=O)N2CCC(c3n[nH]c(=O)n3Cc3ccc(F)cc3)CC2)cc1F | – | inconclusive: 31.6 µM [inhibitor, full curve, poor fit]
CN(CC1CCCCC1)C(=O)CN(C)c1ncnc2nc[nH]c12 | inactive: -8.57% | –
CC1(C)CC(CC(=O)N[C@H](Cc2ccccc2)C2CC(O)C2)CC(C)(C)N1 (stereo not given in full) | inactive: 4.17% | –
CCn1cc(C(=O)O)c(=O)c2cc(F)c(N3CCN(C(=S)NC(=O)c4cccc(F)c4)CC3)cc21 | inactive: 6.9% | –
CSc1ncccc1C(=O)Nc1ccc(S(=O)(=O)Nc2nccs2)cc1 | – | inconclusive: 8.91 µM [inhibitor, full curve, poor fit]
COc1ccc(OC)c(S(=O)(=O)NCc2ccc3c(c2)CCN3C(=O)c2cccc(C)c2)c1 | inactive: -16.4% | –
O=C(c1ccc(F)cc1)N1CCn2c(nn(-c3ccc(F)cc3)c2=O)C1 | inactive: 24.1% | –
Cc1cc(C(=O)NCCCN(C)C)c2ccccc2n1 | – | inconclusive: 126 µM [inhibitor, partial curve, poor fit]
Cc1cccc(N2C(=O)N(Cc3ccc(C(C)(C)C)cc3)c3ccccc3S2(=O)=O)c1 | inactive: -13.7% | –
CC(C)CN1C(=O)C(=O)N(CC(=O)N(C)CC(=O)Nc2ccc(F)cc2)C1=O | – | inconclusive: 112 µM [inhibitor, single point]

An excerpt of these results, in markdown.

| Structure (SMILES) | activity change, negative = inhibition | Potency |
| --- | --- | --- |
| CCn1c(Cn2nnc(-c3ccccc3Cl)n2)nc2cc(S(=O)(=O)N3CCCCC3)ccc21 | inactive: 1.26% | – |
| COc1ccc(C(=O)N2CCC(c3n[nH]c(=O)n3Cc3ccc(F)cc3)CC2)cc1F | – | inconclusive: 31.6 µM [inhibitor, full curve, poor fit] |
